Results reported in PMC8828467, “Activation mechanism of PINK1” (Nature, 2021).
No constants are given. Whether binding was seen depends on the method and setting. Binding seen in cells or lysates may run through a third protein. Some entries that bind do so weakly or less than the wild type. Each block holds one molecule with its values, some of them ahead of it.

How the values were obtained:
Experiment in all cases: cross-linking; HsPINK1 variants expressed in HeLa PINK1−/− cells, OA for 2 h, 2 mM H2O2 in the medium for 10 min, lysis in SDS sample buffer, non-reducing gel, anti-PINK1 blot
HsPINK1 D384A (human) = HsPINK1 D384A (human) (UniProt Q9BXM7)
HsPINK1(C166A) (human) = HsPINK1(C166A) (human) (UniProt Q9BXM7)
[1] = target: T1, WT HsPINK1 (full length) (human), Q9BXM7; conditions: remark: other sources report otherwise
T1 chain: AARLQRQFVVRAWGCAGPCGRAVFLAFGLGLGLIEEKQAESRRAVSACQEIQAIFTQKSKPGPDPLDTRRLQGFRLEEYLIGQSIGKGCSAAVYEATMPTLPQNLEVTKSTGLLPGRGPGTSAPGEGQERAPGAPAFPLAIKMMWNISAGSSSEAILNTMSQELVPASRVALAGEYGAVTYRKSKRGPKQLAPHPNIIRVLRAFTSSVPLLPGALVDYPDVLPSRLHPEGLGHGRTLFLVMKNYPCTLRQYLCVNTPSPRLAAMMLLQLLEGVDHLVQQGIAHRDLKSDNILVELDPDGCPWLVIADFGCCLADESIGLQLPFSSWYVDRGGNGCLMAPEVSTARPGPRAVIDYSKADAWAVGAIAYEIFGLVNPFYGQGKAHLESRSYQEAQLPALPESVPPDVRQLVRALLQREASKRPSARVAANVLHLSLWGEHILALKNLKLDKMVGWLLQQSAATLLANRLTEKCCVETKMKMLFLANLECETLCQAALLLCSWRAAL

binding (HsPINK1 D384A (human)): binds
Molecule: HsPINK1 D384A (from UniProt Q9BXM7 78-581) (enzyme)

binding (HsPINK1(C166A) (human)): no binding
Molecule: HsPINK1(C166A) (from UniProt Q9BXM7 78-581) (enzyme)

binding [1]: binds
B1: WT HsPINK1 (full length), Q9BXM7 78-581 (enzyme)
chain: AARLQRQFVVRAWGCAGPCGRAVFLAFGLGLGLIEEKQAESRRAVSACQEIQAIFTQKSKPGPDPLDTRRLQGFRLEEYLIGQSIGKGCSAAVYEATMPTLPQNLEVTKSTGLLPGRGPGTSAPGEGQERAPGAPAFPLAIKMMWNISAGSSSEAILNTMSQELVPASRVALAGEYGAVTYRKSKRGPKQLAPHPNIIRVLRAFTSSVPLLPGALVDYPDVLPSRLHPEGLGHGRTLFLVMKNYPCTLRQYLCVNTPSPRLAAMMLLQLLEGVDHLVQQGIAHRDLKSDNILVELDPDGCPWLVIADFGCCLADESIGLQLPFSSWYVDRGGNGCLMAPEVSTARPGPRAVIDYSKADAWAVGAIAYEIFGLVNPFYGQGKAHLESRSYQEAQLPALPESVPPDVRQLVRALLQREASKRPSARVAANVLHLSLWGEHILALKNLKLDKMVGWLLQQSAATLLANRLTEKCCVETKMKMLFLANLECETLCQAALLLCSWRAAL
